From patent US9132164B2, “Pharmaceutical compositions comprising angiotensin-(1-9), derivatives thereof, or a vector expressing ACE2, useful for treating cardiovascular, pulmonary, cerebral, and/or renal remodeling” (PONTIFICIA UNIVERSIDAD CATOLICA DE CHILE, priority 2008, dated 2015)
No end group written: not given here.

Columns and labels:
[1] = system: sham and infarcted rats (left coronary artery ligation); experiment: Effect of candesartan and enalapril on blood pressure, morphometry and function of the left ventricle after coronary artery ligation; format: in vivo, Sprague Dawley rats; conditions: 10 mg/kg daily by gavage, 8 weeks, average ± SEM
Description: Male Sprague Dawley rats were kept in cages with access to water and food ad libitum. This procedure was performed in accordance with the Guide for the Care and Use of Laboratory Animals, published by “U.S. National Institutes of Health” (NIH publication No 85-23, revised 1985) and was approved by our Institutional Ethics Committee. […] Infarct size in survivors was determined by planimetry of endocardial circumference of left ventricle on histological sections. […]
(§1) Systolic blood pressure (SBP) was determined by using the “tail-cuff” method by investigators who were blind to the treatment group. Left ventricle function was determined by transthoracic bidimensional echocardiography using a Sonos 5000 equipped with a 5 to 12 MHz sectorial electronic ultraband S12 Philips transducer. The following echocardiographic parameters were determined: left ventricular end-systolic diameter (LVESD), left ventricular end diastolic diameter (LVEDD), left ventricular fractional shortening (LVFS), left ventricular anterior wall thickness (LVAWT), and left ventricular posterior wall thickness (LLVWT). […]

[2] = system: rats with myocardial infarction (left coronary artery ligation); experiment: Effects of angiotensin-(1-9) administration on hemodynamic parameters and left ventricle weight in infarcted rats; format: in vivo, Sprague Dawley rats; conditions: infarcted rats (MI), osmotic mini-pump 14 days, average ± SEM
Description: For studies with angiotensin-(1-9) 28 rats were randomly distributed into two groups and underwent a sham surgery (n=8) or infarction following left coronary artery ligation (n=20). The infarcted rats were randomized to receive the either the carrier, angiotensin-(1-9) (463 ng/kg of body weight for 14 days) or angiotensin-(1-9) plus A779 (463 ng of angiotensin-(1-9)/kg of body weight/min and 100 ng of A779/kg/min for 14 days) by means of osmotic mini-pumps (ALZET) implanted into the jugular under sedation with ketamine-HCl/xilazine (35/7 mg/kg intraperitoneal, respectively).
as §1

| Compound | BW ([1]; infarcted rats (MI)) [g] | BW ([1]; sham rats) [g] | BW [2] | BW ([2]; listed as Ang-(1-9)) [g] |
| --- | --- | --- | --- | --- |
| CCOC(=O)[C@H](CCc1ccccc1)N[C@@H](C)C(=O)N1CCC[C@H]1C(=O)O [enalapril] | 345 ± 4 | 350 ± 7 | – | – |
| DRVYIHPFH [angiotensin-(1-9)] | – | – | without observing changes | 274 ± 24 |
